These results are taken from article PMC8294587, “Intrinsic differences in the mechanisms of Tie2 binding to angiopoietins exploited by directed evolution to create an Ang2-selective ligand trap” (The Journal of Biological Chemistry, 2021).

Amino acid sequences for entries named in this document (tags omitted). A change or cut given only in a name is not applied to a line headed by its entry. Chains listed by the source or under a name are the forms on record and can include a tag or linker.
parent Ang2-selective Tie2 ectodomain (R3) (Q02763, form named): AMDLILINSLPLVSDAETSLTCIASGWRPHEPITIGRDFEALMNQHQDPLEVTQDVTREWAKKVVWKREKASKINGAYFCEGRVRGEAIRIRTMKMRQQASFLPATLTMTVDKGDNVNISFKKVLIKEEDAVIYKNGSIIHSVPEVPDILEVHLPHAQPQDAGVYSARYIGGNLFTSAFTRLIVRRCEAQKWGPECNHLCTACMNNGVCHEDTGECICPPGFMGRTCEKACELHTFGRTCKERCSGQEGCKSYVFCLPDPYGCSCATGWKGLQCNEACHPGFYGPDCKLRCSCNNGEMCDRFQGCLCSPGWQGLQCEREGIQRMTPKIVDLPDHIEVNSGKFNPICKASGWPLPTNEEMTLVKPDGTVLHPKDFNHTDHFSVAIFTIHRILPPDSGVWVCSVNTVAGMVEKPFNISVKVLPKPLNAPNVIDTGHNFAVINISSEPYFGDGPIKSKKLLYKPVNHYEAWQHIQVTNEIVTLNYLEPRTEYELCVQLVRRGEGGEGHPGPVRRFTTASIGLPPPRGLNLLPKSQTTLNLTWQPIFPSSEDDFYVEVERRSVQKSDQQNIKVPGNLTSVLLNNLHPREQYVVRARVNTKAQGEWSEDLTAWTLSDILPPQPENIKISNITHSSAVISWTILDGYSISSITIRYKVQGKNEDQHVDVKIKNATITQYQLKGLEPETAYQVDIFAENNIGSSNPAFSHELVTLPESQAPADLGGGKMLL

Test [1] has as its target evolved Tie2 ectodomain displayed on DT40 cells selected at 10 pM Ang2 (UniProt Q02763). In words: flow cytometry on cells; DT40 cells displaying evolved Tie2 ectodomain incubated with increasing concentrations of Ang1 or Ang2 in PBS with 10% FBS, 30 min, room temperature; bound ligand immunostained, normalised to Tie2 expression (anti-FLAG); only the binder purified.
Test [2] addresses T1, Angiopoietin-2 (UniProt O15123 19-496).
T1 construct: recombinant Ang2; the residue numbers printed for Ang2 (Asp448, Phe469, Ser480) come from the cited structure 2GY7; also called Ang2; source: recombinant
T1 sequence (looked up): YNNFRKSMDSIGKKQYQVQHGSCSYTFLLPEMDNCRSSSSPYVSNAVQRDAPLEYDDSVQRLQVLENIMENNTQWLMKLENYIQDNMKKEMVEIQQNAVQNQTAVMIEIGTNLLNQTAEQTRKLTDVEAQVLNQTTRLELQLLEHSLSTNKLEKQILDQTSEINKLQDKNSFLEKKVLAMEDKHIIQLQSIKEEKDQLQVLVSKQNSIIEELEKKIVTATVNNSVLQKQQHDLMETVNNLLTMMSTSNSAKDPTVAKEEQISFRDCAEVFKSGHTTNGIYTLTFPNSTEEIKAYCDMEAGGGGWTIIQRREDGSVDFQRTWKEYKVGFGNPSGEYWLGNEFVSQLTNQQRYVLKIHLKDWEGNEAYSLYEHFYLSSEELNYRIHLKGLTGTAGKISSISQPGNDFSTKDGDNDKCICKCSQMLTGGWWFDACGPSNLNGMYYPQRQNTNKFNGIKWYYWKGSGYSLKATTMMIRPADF
In words: ELISA; recombinant Ang1 or Ang2 immobilised on Maxisorp plates, blocked with TBS, 0.1% Triton-X100, 5% milk powder; Tie2 ectodomain proteins bound for 1 h; detected with anti-Tie2 ectodomain antibodies; EC50 = concentration of ectodomain for 50% of maximal binding; both purified. On the technique in general: An ELISA detects its analyte on a solid surface through an enzyme-linked reagent.

These are yes or no findings as the source states them, for the method shown. Some entries that bind do so weakly or less than the wild type.

As for “Angiopoietin-2 (from UniProt O15123 19-496) (ligand)”, the binding entry in test [1] was “binds”.
“parent Ang2-selective Tie2 ectodomain (R3) (from UniProt Q02763 23-748) (domain or fragment)”: the binding entry in test [2] is reported as “binds”.
